# Measured values published in the supplement of paper PMC10849652.
# Sequences of proteins named here, by UniProt entry; tags and fusion partners are left off. A change or cut given only in a name is not applied to a line headed by its entry.
# UniProt P52597: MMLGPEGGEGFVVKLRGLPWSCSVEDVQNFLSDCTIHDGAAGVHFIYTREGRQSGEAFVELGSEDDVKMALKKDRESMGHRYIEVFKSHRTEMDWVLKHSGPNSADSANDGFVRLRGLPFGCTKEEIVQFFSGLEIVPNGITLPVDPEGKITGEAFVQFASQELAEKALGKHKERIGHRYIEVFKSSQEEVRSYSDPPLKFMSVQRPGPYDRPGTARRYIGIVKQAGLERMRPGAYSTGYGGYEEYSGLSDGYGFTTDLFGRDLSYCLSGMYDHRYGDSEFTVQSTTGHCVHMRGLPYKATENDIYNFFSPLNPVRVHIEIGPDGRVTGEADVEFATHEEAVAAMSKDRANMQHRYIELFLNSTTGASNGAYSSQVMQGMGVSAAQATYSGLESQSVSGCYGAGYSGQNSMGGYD
# UniProt P14625, whole entry, looked up: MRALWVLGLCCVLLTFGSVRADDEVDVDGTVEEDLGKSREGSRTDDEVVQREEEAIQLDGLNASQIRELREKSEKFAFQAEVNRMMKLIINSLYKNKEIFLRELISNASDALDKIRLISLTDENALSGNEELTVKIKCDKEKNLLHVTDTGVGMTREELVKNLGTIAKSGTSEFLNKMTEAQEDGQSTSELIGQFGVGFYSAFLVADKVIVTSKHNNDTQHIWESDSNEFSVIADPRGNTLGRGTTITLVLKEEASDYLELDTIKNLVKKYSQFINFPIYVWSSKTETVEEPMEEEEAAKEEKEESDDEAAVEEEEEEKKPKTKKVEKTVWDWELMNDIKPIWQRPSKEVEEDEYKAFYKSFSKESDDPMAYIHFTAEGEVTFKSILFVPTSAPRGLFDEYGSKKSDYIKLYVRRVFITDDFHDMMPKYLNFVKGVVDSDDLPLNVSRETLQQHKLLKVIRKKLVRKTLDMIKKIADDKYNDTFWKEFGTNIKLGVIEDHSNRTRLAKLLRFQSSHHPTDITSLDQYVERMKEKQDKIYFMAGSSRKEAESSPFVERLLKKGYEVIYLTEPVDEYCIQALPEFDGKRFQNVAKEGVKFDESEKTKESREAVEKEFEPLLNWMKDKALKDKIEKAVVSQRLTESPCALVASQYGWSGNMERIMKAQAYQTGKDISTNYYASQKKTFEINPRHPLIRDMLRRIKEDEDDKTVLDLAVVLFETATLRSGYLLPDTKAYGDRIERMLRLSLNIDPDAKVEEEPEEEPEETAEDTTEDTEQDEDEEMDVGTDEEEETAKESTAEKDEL
# UniProt P09651: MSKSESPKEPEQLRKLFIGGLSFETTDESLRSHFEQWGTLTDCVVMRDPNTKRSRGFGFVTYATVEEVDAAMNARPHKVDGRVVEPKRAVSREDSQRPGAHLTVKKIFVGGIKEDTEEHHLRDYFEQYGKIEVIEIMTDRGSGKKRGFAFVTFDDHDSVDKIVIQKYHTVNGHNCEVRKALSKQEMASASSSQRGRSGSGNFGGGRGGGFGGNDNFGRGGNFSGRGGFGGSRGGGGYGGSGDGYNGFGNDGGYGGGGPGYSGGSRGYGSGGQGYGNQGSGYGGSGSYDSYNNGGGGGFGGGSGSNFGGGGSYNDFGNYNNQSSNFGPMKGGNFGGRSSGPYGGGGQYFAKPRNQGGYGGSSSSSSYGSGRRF
# UniProt Q9NP66: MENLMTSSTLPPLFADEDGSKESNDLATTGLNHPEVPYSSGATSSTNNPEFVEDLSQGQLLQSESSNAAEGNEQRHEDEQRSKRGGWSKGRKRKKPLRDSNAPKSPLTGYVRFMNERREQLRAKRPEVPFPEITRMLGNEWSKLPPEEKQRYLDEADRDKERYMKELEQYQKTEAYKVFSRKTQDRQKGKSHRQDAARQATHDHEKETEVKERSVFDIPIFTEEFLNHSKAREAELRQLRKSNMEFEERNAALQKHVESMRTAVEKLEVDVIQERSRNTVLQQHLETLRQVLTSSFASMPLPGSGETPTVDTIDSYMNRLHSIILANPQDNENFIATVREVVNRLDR
# UniProt P31943: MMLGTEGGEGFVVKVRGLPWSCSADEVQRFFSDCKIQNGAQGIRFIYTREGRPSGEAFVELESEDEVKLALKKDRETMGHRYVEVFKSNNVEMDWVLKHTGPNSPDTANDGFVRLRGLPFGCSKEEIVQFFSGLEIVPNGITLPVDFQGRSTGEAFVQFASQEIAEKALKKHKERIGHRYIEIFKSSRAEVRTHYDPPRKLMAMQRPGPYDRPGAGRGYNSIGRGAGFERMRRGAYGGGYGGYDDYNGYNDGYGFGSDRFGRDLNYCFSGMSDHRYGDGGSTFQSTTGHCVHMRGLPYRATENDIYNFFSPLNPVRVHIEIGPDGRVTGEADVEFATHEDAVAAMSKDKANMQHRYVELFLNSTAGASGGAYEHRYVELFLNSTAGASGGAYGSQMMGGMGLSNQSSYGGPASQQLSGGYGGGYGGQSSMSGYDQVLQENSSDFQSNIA
# The list shows a part of the results.
# Columns and labels:
# Experiment in all cases: log2 fold change, soluble protein after heating vs DMSO (PISA); higher = thermal stabilisation; K562 cells, 10 uM, 30 min; active = over 0.2 and 3.5 SD of the protein, either way, in both replicates (recomputed)
# [1] = compound: CC[C@@H]1C(=O)N(C)c2cnc(Nc3ccc(C(=O)NC4CCN(C)CC4)cc3OC)nc2N1C1CCCC1
# Method in brief: (§1)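 Values are thermal stability changes relative to control samples and are taken from duplicates. They are stated as log2 fold changes. Before quantification by TMTpro 16plex LC-MS/MS with equalised channel sums, K562 cells at 2×10^6 cells/mL were treated with 10 μM compound for 30 min, heated in aliquots for 3 min across 48°C-58°C, pooled, extracted in PBS with 0.5% NP-40 at 4°C, and centrifuged at 21,000xg for 90 min to give the soluble supernatant.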
# volasertib = compound: CC[C@@H]1C(=O)N(C)c2cnc(Nc3ccc(C(=O)N[C@H]4CC[C@H](N5CCN(CC6CC6)CC5)CC4)cc3OC)nc2N1C(C)C [volasertib]
# Method in brief: as §1
# [2] = compound: CC[C@H](C)N1C=C(C2=C(C=C(C=C21)C3=CN=C(C=C3)N4CCNCC4)C(=O)NCC5=C(C=C(NC5=O)C)C)C
# Method in brief: as §1
# epoxomicin = compound: CC[C@H](C)[C@@H](C(=O)N[C@@H]([C@@H](C)O)C(=O)N[C@@H](CC(C)C)C(=O)[C@]1(CO1)C)NC(=O)[C@H]([C@@H](C)CC)N(C)C(=O)C [epoxomicin]
# Method in brief: as §1
# [3] = compound: CCn1cc(-c2ccnc3[nH]c(-c4cccc(CN(C)C)c4)cc23)c(-c2ccc(NC(=O)N(C)C)cc2)n1
# Method in brief: as §1
# [4] = compound: CN(C)CC(=O)Nc1ccc2[nH]c(=O)c3ccccc3c2c1
# Method in brief: as §1
# [5] = compound: CN1C2=C(C3=C1C(=O)N(N=C3)CC4=CC(=CC=C4)N)SC(=C2)S(=O)C
# Method in brief: as §1
# [6] = compound: CN1CCC(CNc2ccc3ncc(-c4cccc(OC(F)(F)F)c4)n3n2)CC1
# Method in brief: as §1
# saracatinib = compound: CN1CCN(CCOc2cc(OC3CCOCC3)c3c(Nc4c(Cl)ccc5c4OCO5)ncnc3c2)CC1 [saracatinib]
# Method in brief: as §1
# sotrastaurin = compound: CN1CCN(c2nc(C3=C(c4c[nH]c5ccccc45)C(=O)NC3=O)c3ccccc3n2)CC1 [sotrastaurin]
# Method in brief: as §1
# Tubastatin A = compound: CN1CCc2c(c3ccccc3n2Cc2ccc(C(=O)NO)cc2)C1 [Tubastatin A]
# Method in brief: as §1
# [7] = compound: CNC(=O)C1=CC=CC=C1NC2=NC(=NC=C2Cl)NC3=C(C=C(C=C3)N4CCOCC4)OC
# Method in brief: as §1
# defactinib = compound: CNC(=O)c1ccc(Nc2ncc(C(F)(F)F)c(NCc3nccnc3N(C)S(C)(=O)=O)n2)cc1 [defactinib]
# Method in brief: as §1
# rucaparib = compound: CNCc1ccc(-c2[nH]c3cc(F)cc4c3c2CCNC4=O)cc1 [rucaparib]
# Method in brief: as §1
# [8] = compound: CNc1nc(-c2ccc3c(N)n[nH]c3c2)cc(N2C[C@@H](C(=O)NC3CCCCC3)CC[C@H]2C)n1
# Method in brief: as §1
# encorafenib = compound: COC(=O)N[C@@H](C)CNc1nccc(-c2cn(C(C)C)nc2-c2cc(Cl)cc(NS(C)(=O)=O)c2F)n1 [encorafenib]
# Method in brief: as §1
# [9] = compound: COC(=O)[C@H](CCSC)NC(=O)C1=C(C=C(C=C1)NC[C@H](CS)N)C2=CC=CC=C2
# Method in brief: as §1
# [10] = compound: CCn1c(C(=O)N(C2CC2)C2CC2)cc2c3c(ncn3C)c(Nc3cc(C)n(C)n3)nc21
# Method in brief: as §1
# rosiglitazone = compound: CN(CCOC1=CC=C(C=C1)C[C@H]2C(=O)NC(=O)S2)C3=CC=CC=N3 (racemic) [rosiglitazone]
# Method in brief: as §1
# alvocidib = compound: CN1CC[C@H](c2c(O)cc(O)c3c(=O)cc(-c4ccccc4Cl)oc23)[C@H](O)C1 [alvocidib]
# Method in brief: as §1
Target,log2 fold change [1],log2 fold change (volasertib),log2 fold change [2],log2 fold change (epoxomicin),log2 fold change [3],log2 fold change [4],log2 fold change [5],log2 fold change [6],log2 fold change (saracatinib),log2 fold change (sotrastaurin),log2 fold change (Tubastatin A),log2 fold change [7],log2 fold change (defactinib),log2 fold change (rucaparib),log2 fold change [8],log2 fold change (encorafenib),log2 fold change [9],log2 fold change [10],log2 fold change (rosiglitazone),log2 fold change (alvocidib)
HIST2H2BF isoform 2 (UniProt Q5QNW6),inactive: -0.043,inactive: 0.153,inactive: -0.079,inactive: -0.243,inactive: 0.231,inactive: -0.22,inactive: 0.398,inactive: 0.084,inactive: -0.084,inactive: 0.074,inactive: 0.093,inactive: -0.044,inactive: 0.313,inactive: 0.325,inactive: 0.039,inactive: 0.015,inactive: 0.05,,,
HMCN1 (UniProt Q96RW7),inactive: 0.023,inactive: 0.057,inactive: 0,inactive: -0.45,inactive: -0.052,inactive: 0.005,inactive: 0.281,inactive: 0.13,inactive: 0.493,inactive: 0.259,inactive: -0.145,inactive: 0.323,inactive: -0.106,inactive: -0.288,inactive: 0.171,inactive: 0.038,inactive: 0.133,inactive: 0.034,inactive: -0.011,inactive: 0.004
HNRNPF (UniProt P52597),inactive: -0.049,active: -0.587,inactive: 0.128,inactive: 0.009,inactive: -0.027,inactive: 0.051,inactive: 0.052,inactive: -0.153,inactive: -0.042,inactive: -0.121,inactive: 0.086,inactive: 0.004,inactive: -0.253,inactive: 0.098,inactive: 0.004,inactive: 0.119,inactive: -0.06,,,
HNRNPK isoform 2 (UniProt P61978),inactive: -0.143,active: -0.271,inactive: 0.062,inactive: 0.003,inactive: -0.027,inactive: 0,inactive: -0.01,active: -0.216,inactive: -0.057,inactive: -0.037,inactive: 0.064,inactive: -0.017,active: -0.228,inactive: -0.053,inactive: 0.015,inactive: 0.028,inactive: 0.003,,,
HSP90B1 (UniProt P14625),inactive: -0.035,inactive: -0.022,inactive: 0.021,inactive: 0.008,inactive: 0.015,inactive: -0.017,inactive: -0.018,inactive: 0.042,inactive: -0.014,inactive: 0.016,inactive: -0.011,inactive: -0.037,inactive: -0.005,inactive: -0.041,inactive: 0.003,inactive: 0.012,inactive: 0.01,inactive: 0.021,inactive: 0.007,inactive: 0.004
HNRNPA1 (UniProt P09651),inactive: 0.217,inactive: 0.144,inactive: -0.01,inactive: -0.334,inactive: 0.259,inactive: -0.112,inactive: 0.276,inactive: 0.264,inactive: -0.03,inactive: 0.024,inactive: 0.023,inactive: 0.016,inactive: 0.438,inactive: 0.338,inactive: 0.068,inactive: 0.07,inactive: -0.017,inactive: -0.068,inactive: -0.154,inactive: 0.254
HSPA8 (UniProt E9PK54),inactive: 0.041,inactive: 0.213,inactive: -0.003,inactive: -0.252,inactive: 0.131,inactive: -0.06,inactive: 0.11,inactive: 0.128,inactive: -0.058,inactive: -0.054,inactive: -0.003,inactive: 0.072,inactive: -0.012,inactive: -0.287,inactive: -0.033,inactive: 0.051,inactive: 0.048,,,
HMG20A (UniProt Q9NP66),inactive: 0.083,inactive: -0.155,inactive: 0.029,inactive: -0.107,inactive: 0,inactive: 0.053,inactive: 0.143,inactive: -0.003,inactive: 0.038,inactive: -0.106,inactive: 0.018,inactive: 0.005,inactive: 0.029,inactive: -0.323,inactive: -0.015,inactive: -0.109,inactive: -0.009,,,
HNRNPH1 (UniProt P31943),inactive: -0.124,active: -0.583,inactive: 0.1,inactive: 0.018,inactive: -0.025,inactive: 0.072,inactive: 0.083,inactive: -0.247,inactive: -0.018,inactive: -0.157,inactive: 0.076,inactive: -0.065,inactive: -0.278,inactive: 0.08,inactive: 0.058,inactive: 0.114,inactive: -0.047,,,

# Random excerpt: 2 entries already listed, in no set order.
Target,log2 fold change [1],log2 fold change (volasertib),log2 fold change [2],log2 fold change (epoxomicin),log2 fold change [3],log2 fold change [4],log2 fold change [5],log2 fold change [6],log2 fold change (saracatinib),log2 fold change (sotrastaurin),log2 fold change (Tubastatin A),log2 fold change [7],log2 fold change (defactinib),log2 fold change (rucaparib),log2 fold change [8],log2 fold change (encorafenib),log2 fold change [9],log2 fold change [10],log2 fold change (rosiglitazone),log2 fold change (alvocidib)
HNRNPK isoform 2 (UniProt P61978),inactive: -0.143,active: -0.271,inactive: 0.062,inactive: 0.003,inactive: -0.027,inactive: 0,inactive: -0.01,active: -0.216,inactive: -0.057,inactive: -0.037,inactive: 0.064,inactive: -0.017,active: -0.228,inactive: -0.053,inactive: 0.015,inactive: 0.028,inactive: 0.003,,,
HNRNPH1 (UniProt P31943),inactive: -0.124,active: -0.583,inactive: 0.1,inactive: 0.018,inactive: -0.025,inactive: 0.072,inactive: 0.083,inactive: -0.247,inactive: -0.018,inactive: -0.157,inactive: 0.076,inactive: -0.065,inactive: -0.278,inactive: 0.08,inactive: 0.058,inactive: 0.114,inactive: -0.047,,,
